The record followed here is PMC11633740, “Rapid prediction of acute thrombosis via nanoengineered immunosensors with unsupervised clustering for multiple circulating biomarkers”.

The chains behind the UniProt entries cited, without tags or fusion partners. Residues count along the entry.
UniProt P16109, 42-771: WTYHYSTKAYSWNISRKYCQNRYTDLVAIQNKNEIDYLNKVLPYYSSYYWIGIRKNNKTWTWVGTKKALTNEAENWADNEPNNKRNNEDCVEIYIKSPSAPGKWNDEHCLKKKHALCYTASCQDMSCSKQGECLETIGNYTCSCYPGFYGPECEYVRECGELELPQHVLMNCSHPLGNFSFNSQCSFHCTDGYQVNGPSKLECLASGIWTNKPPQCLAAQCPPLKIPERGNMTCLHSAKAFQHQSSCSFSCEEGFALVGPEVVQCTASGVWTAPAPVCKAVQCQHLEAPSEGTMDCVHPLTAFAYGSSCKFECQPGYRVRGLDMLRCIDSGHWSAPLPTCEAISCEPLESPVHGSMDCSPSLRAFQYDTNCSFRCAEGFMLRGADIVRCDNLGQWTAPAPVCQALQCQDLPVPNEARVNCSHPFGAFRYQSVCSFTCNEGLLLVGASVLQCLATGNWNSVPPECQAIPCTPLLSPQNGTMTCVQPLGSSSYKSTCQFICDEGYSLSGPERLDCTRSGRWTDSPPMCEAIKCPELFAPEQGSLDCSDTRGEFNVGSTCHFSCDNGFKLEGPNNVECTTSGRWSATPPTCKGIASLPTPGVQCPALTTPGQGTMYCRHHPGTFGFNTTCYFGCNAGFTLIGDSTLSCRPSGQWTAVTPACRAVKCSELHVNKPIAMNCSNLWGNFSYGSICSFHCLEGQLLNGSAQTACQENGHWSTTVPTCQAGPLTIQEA

In series [1] the target is soluble P-selectin (sP-selectin) (human) (UniProt P16109). Description: SPR. Conditions: immobilized aptamer, no Kd given in text; thiol (position not given) for the electrode; no 2' modification stated; SPR (Biacore 2000, SA chip): 10 mM Hepes, 150 mM NaCl, pH 7.4, 0.005% Tween 20, 25 C; commercial protein.
Series [2] addresses T1, C-reactive protein (CRP) (human) (UniProt P02741).
T1 sequence (looked up, limits assumed): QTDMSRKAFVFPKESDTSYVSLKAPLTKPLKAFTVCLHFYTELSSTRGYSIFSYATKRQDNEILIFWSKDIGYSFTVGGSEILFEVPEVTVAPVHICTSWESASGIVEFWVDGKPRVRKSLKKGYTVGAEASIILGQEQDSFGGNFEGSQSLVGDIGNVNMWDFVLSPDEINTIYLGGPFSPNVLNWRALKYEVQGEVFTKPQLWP
As to the kind of experiment: SPR. Conditions: immobilized aptamer, no Kd given in text; thiol (position not given) for the electrode; SPR (Biacore 2000, SA chip): 10 mM Hepes, 150 mM NaCl, pH 7.4, 0.005% Tween 20, 25 C; commercial protein; single-stranded DNA.

Construct, isoform or probe ends are uncertain for at least one entry. At least one verdict rests on a figure or table, not on a statement of the authors. For some assays here: Protein sequences can lack the tags named with them.

Regarding “ACGCUCAACGAGCCAGGAACAUCGACGUCAGCAAACGCGAGCGCAACCAGUAACACC [sP-selectin aptamer]”, the binding result in series [1] is on record as “binds”. Regarding “GCCTGTAAGGTGGTCGGTGTGGCGAGTGTGTTAGGAGAGATTGC [CRP aptamer]”, the binding result in series [2] is on record as “binds”.
